Test results from ChEMBL document CHEMBL3098050, “Stereoselective total synthesis of a novel regiomer of herbarumin I and its cytotoxic and antimicrobial activities” (Bioorg Med Chem Lett, 2014).

Assays:
Format in all cases: functional, cell-based
MDA-MB-231 = assay: Cytotoxicity against human MDA-MB-231 cells by MTT assay
How it was run: (§1)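 MTT read-out (Mosmann method); absorbance dose–response curves plotted and IC50 calculated from them; each cell line's value is the mean of two independent experiments; doxorubicin as positive control.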

HepG2 = assay: Cytotoxicity against human HepG2 cells by MTT assay; how it was run: as §1
A549 = assay: Cytotoxicity against human A549 cells by MTT assay; how it was run: as §1

Compound: COc1cccc2c1C(=O)c1c(O)c3c(c(O)c1C2=O)C[C@@](O)(C(=O)CO)C[C@@H]3O[C@H]1C[C@H](N)[C@H](O)[C@H](C)O1 [DOXORUBICIN]
- IC50 (MDA-MB-231): 600 nM
- IC50 (HepG2): 600 nM
- IC50 (A549): 700 nM
